Source: patent US20060160837A1, “Rapamycin compounds in the treatment of neurofibromatosis type 1” (The Brigham and Women's Hospital, Inc., priority 2004, published 2006)
For at least one compound, name, drawing or mass did not settle the structure.

Assays:
[1] = test system: MPNST cell lines from NF1 patients; test: MPNST proliferation studies (live cell count, trypan blue exclusion); format: cell-based, human
[2] = test system: Nf1-/- MEFs expressing E1A and p53DD; test: Soft agar colony assay of Nf1-/- MEFs expressing E1A and dominant-negative p53; format: cell-based, mouse; details: Nf1-/- MEFs with E1A and dominant-negative p53; low concentrations (0.1-50 nM tested); 4-6 weeks
[3] = test system: S6K1 phosphorylation at T-389 (readout of mTOR activation); test: S6K1 (T-389) phosphorylation immunoblot in serum-starved Nf1-deficient MEFs; format: cell-based, mouse; details: serum-deprived Nf1-null MEFs; pre-treatment 30 min; 20 nM rapamycin, 200 nM wortmannin, U0126
[4] = test system: tuberin phosphorylation at T-1462 and S-939; test: Tuberin phosphorylation at T-1462 and S-939, immunoblot in serum-starved Nf1-deficient cells; format: cell-based, mouse; details: 200 nM wortmannin or U0126
[5] = test system: tuberin phosphorylation at S-1798; test: Phosphorylation of immunoprecipitated tuberin at S-1798 in serum-starved Nf1-deficient MEFs; format: cell-based, mouse
[6] = test system: S6K1 phosphorylation in NF1-/- Schwann cells; test: S6K1 phosphorylation immunoblot in neurofibroma-derived NF1-/- Schwann cells; format: cell-based; details: NF1-/- Schwann cells from human cutaneous and plexiform neurofibromas
Method: Litter-mate matched MEFs or NIH3T3 cells were plated in serum-free media at a density of 1.0×10^6 cells/10-cm plate. After 18 hours, 200 nM insulin or 6 μM LPA was added. Where indicated, cells were pre-treated with DMSO, 20 nM rapamycin (Calbiochem), 200 nM Wortmannin (Sigma-Aldrich), or indicated concentrations of U0126 (Calbiochem) for 30-min. For amino acid withdrawal studies, cells were washed and media was replaced with D-PBS for the indicated times. Following stimulation, cells were lysed in 1% SDS boiling lysis buffer. Neurofibroma-derived patient matched NF1^+/− and NF1^−/− Schwann cells were isolated and cultured as previously described (Rosenbaum, et al., J. Neurosci. Res. 61:524-532 (2000); Serra, et al., Hum. Mol. Genet. 9:3055-3064 (2000)). Schwann cells were seeded at a concentration of 2.5×10^5 cells/6-cm plate in DMEM containing 0.1% serum without forskolin, insulin or heregulin and lysed as described above. […] Clarified lysates were normalized for protein levels and analyzed by Western blotting with the following antibodies: Phospho-p70S6K(T-389), Phospho-Tuberin (S-939), Phospho-Tuberin (T-1462), Phospho-Akt(S-473), Phospho-p44/42 Erk (T-202/Y-204) (Cell Signaling Technologies), Tuberin (C-20) (Santa Cruz Biotechnology), Protein Kinase Bα/AKT1, Actin, β-Tubulin (Sigma-Aldrich) and avian p90RSK1. […]

Compound	cell death ([1]; one of the two MPNST cell lines, higher concentrations of rapamycin)	proliferation of MPNST cell lines ([1]; two independently derived MPNST cell lines, low concentrations of rapamycin)	colony growth in soft agar [2]	aberrant activation (phosphorylation) of S6K1 [3]	tuberin phosphorylation at T-1462 and S-939 [4]	tuberin phosphorylation at S-1798 (basophilic RXRXXpS/T site) [5]	S6K1 phosphorylation [6]
CO[C@H]1C[C@@H]2CC[C@@H](C)[C@@](O)(O2)C(=O)C(=O)N2CCCC[C@H]2C(=O)O[C@H]([C@H](C)C[C@@H]2CC[C@@H](O)[C@H](OC)C2)CC(=O)[C@H](C)/C=C(\C)[C@@H](O)[C@@H](OC)C(=O)[C@H](C)C[C@H](C)/C=C/C=C/C=C/1C [rapamycin]	induced cell death	dramatically suppressed	suppressed colony growth	–	–	–	–
COC[C@H]1OC(=O)c2coc3c2[C@@]1(C)C1=C(C3=O)[C@@H]2CCC(=O)[C@@]2(C)C[C@H]1OC(C)=O [wortmannin]	–	–	–	dramatically reduced	suppressed	unaffected	blocked
